Test results reported in patent publication US20030022821A1, “Bioactive peptides” (priority 1998, published 2003).
Part of at least one peptide drawing is inferred or uncertain, most often the ends.

System: Meth A cells (murine sarcoma cell line)
Assay: Cytotoxicity on Meth A cells, MTT method
Settings: after 4 h incubation; Meth A cells 1×10^4/ml
Experimental: Peptide solutions (0.1 ml) were added and the plates incubated at 37° C. for 30 minutes, 4 hours or 24 hours. The cytotoxicity was measured using the MTT method (Mosmann et al., J. Immunol. (1986) 136, 2348-2357).
Cells in the growth phase were harvested and washed in fresh medium and injected subcutaneously into the abdominal region of the mice.
The cytotoxic effect of the peptides on different murine and human tumor cells were measured using the MTT method (Mosmann et al., J. Immunol. (1986) 136, 2348-2357). MTT is a soluble tetrazolium salt yielding a yellow solution when prepared in media or salt solutions lacking phenol red. Dissolved MTT is converted to an insoluble purple formazan by cleavage of the tetrazolium ring by dehydrogenase enzymes. This water insoluble formazan can be solubilized using isopropanol or other solvents and the dissolved material is measured spectrophotometrically. The absorbance was measured as a function of concentration of converted dye.
Cells were maintained in […] medium containing 10% FBS, 1% L-glutamine and 0.1% penicillin and streptomycin. Cells to be used in the assay were grown to confluency, trypsinated and split to single cell suspension, counted and centrifuged at 1500 rpm for 10 min. […] The plate was placed on a shaker for 1 h and read spectrophotometrically at 590 nm in a microtiterplate reader using the Softmaxâ program.

CC[C@H](C)[C@H](NC(=O)[C@H](CO)NC(=O)[C@@H]1CCCN1C(=O)[C@H](C)NC(=O)CNC(=O)[C@H](CC(C)C)NC(=O)[C@H](CCCCN)NC(=O)[C@H](CCCCN)NC(=O)[C@H](CCSC)NC(=O)[C@H](CCCNC(=N)N)NC(=O)[C@H](Cc1c[nH]c2ccccc12)NC(=O)[C@H](CCC(N)=O)NC(=O)[C@H](Cc1c[nH]c2ccccc12)NC(=O)[C@H](CCCNC(=N)N)NC(=O)[C@H](CCCNC(=N)N)NC(=O)[C@H](CSCNC(C)=O)NC(=O)[C@H](CCCCN)NC(=O)[C@@H](N)Cc1ccccc1)C(=O)N[C@H](C(=O)N[C@@H](CSCNC(C)=O)C(=O)N[C@H](C(=O)N[C@@H](CCCNC(=N)N)C(=O)N[C@@H](CCCNC(=N)N)C(=O)N[C@@H](C)C(=O)N[C@@H](Cc1ccccc1)C(=O)O)C(C)C)[C@@H](C)O [LFB (17-41), reference compound]
concentration at which Meth A cells were killed effectively: higher than 0.6 mg/ml
